Experimental data reported in article PMC6375223.
Numbering of substitutions follows the chain as printed. In names and notes the source's numbering stands. No constants are given. Whether binding was seen depends on the method and setting. In cells and extracts the contact can be indirect. Some results given as binding are weak or reduced against the parent protein; the word gives no strength.

By UniProt entry, the sequences of proteins in these tests, tags left out.
UniProt Q13309: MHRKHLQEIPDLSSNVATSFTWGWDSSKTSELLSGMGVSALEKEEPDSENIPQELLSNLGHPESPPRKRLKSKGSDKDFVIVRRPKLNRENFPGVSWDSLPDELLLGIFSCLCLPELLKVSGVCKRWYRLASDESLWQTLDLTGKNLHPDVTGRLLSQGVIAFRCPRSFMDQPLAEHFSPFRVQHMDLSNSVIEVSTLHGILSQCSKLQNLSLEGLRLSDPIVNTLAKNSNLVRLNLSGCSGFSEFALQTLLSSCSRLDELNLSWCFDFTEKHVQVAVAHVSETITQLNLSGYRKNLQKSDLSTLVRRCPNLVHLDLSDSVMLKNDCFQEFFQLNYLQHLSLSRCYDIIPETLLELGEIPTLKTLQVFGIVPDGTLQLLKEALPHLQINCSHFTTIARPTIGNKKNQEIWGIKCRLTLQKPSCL

Legend:
[1] = molecular target: SKP2 (wild type) in transfected 293 T cells (UniProt Q13309); assay: co-IP; 293 T cells transfected with the indicated plasmids, whole-cell lysate (weak RIPA lysis buffer), immunoprecipitation and immunoblotting
[2] = molecular target: S-phase kinase-associated protein 2 (SKP2), endogenous (human (endogenous in 293 T)) (UniProt Q13309); assay: co-IP; endogenous proteins in 293 T whole-cell lysate (weak RIPA lysis buffer), immunoprecipitation with SKP2 antibody or PDCD4 antibody, immunoblotting

B1: Programmed cell death protein 4 (PDCD4), endogenous (protein, UniProt Q53EL6 1-469)
chain: MDVENEQILNVNPADPDNLSDSLFSGDEENAGTEEIKNEINGNWISASSINEARINAKAKRRLRKNSSRDSGRGDSVSDSGSDALRSGLTVPTSPKGRLLDRRSRSGKGRGLPKKGGAGGKGVWGTPGQVYDVEEVDVKDPNYDDDQENCVYETVVLPLDERAFEKTLTPIIQEYFEHGDTNEVAEMLRDLNLGEMKSGVPVLAVSLALEGKASHREMTSKLLSDLCGTVMSTTDVEKSFDKLLKDLPELALDTPRAPQLVGQFIARAVGDGILCNTYIDSYKGTVDCVQARAALDKATVLLSMSKGGKRKDSVWGSGGGQQSVNHLVKEIDMLLKEYLLSGDISEAEHCLKELEVPHFHHELVYEAIIMVLESTGESTFKMILDLLKSLWKSSTITVDQMKRGYERIYNEIPDINLDVPHSYSVLERFVEECFQAGIISKQLRDLCPSRGRKRFVSEGDGGRLKPESY
binding [1]: binds | binding [2]: binds

B2: PDCD4 (S67A) mutant (protein, UniProt Q53EL6 1-469)
chain: B1 chain with S67A
binding [1]: no binding
